Experimental data published in paper PMC4486695.
Results are given in words; binding and its absence hold for the method and conditions named. For some assays here: In cells and extracts the contact can be indirect. Some binding calls cover weakened binding; strength is not graded here. Where a sequence is shown, tags or fusion partners need not be part of it.

The chains behind the UniProt entries cited, without tags or fusion partners.
UniProt P03372: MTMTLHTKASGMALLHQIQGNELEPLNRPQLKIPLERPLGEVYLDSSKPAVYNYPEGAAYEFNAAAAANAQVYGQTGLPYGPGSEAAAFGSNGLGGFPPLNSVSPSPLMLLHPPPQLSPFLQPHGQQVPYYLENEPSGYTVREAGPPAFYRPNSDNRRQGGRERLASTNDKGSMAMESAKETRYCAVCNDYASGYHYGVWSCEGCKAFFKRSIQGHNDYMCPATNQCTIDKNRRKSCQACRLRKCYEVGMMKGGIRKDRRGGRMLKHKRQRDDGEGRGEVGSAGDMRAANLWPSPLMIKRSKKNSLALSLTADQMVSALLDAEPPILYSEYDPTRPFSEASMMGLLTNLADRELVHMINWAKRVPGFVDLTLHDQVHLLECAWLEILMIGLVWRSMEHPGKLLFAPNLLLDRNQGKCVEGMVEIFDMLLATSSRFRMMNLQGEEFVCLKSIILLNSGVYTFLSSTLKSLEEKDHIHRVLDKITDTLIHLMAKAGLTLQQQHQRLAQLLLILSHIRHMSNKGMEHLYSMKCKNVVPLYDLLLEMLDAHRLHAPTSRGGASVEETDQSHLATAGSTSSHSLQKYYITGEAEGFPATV

Tests used:
GST-ETS-1 = biological target: T1, GST-ETS-1 (UniProt P14921); test: pull-down; GST fusion protein bound to glutathione-Sepharose beads incubated with purified FLAG-tagged protein in 500 μl binding buffer at 4 °C for 4 h, in the presence or absence of 100 nM E2; washed three times; SDS-PAGE and western blot; both purified
T1 sequence: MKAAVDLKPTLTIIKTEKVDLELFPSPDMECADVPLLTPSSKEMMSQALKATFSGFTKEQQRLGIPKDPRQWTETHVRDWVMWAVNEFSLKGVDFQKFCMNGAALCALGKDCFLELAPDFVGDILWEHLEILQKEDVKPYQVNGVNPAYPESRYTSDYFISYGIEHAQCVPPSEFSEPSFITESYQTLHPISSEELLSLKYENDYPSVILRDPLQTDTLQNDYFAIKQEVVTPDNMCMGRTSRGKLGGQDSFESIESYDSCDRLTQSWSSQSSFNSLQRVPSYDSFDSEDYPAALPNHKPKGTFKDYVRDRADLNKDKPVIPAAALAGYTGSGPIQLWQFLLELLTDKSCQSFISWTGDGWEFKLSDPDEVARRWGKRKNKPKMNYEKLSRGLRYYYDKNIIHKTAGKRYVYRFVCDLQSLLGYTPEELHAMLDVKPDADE

FLAG-ETS-1 = biological target: T2, FLAG-ETS-1 (UniProt P14921); test: co-IP; SH-SY5Y cells transfected with FLAG-ERα or FLAG-ETS-1, lysed after 18-24 h; precipitated with anti-FLAG monoclonal antibody, blotted with anti-ETS-1 or anti-ERα; treated without or with 100 nM E2
T2 sequence: T1 sequence

Row | binding (GST-ETS-1) | binding (FLAG-ETS-1) | Substance
1 | binds |  | FLAG-ERα (purified) (from UniProt P03372 1-595) (receptor)
2 |  | binds | endogenous ERα (estrogen receptor α) (from UniProt P03372 1-595)
